# Measured values as given in the supplement of paper PMC8007513.
# The other results are listed elsewhere or left out. Many values rest on one well or one pass, so single values are uncertain.
# System: Saccharomyces cerevisiae BY4743
# Experiment: growth (OD600) with compound + IPBC relative to untreated control; higher = less growth inhibition
# Conditions: compound concentration: 133 uM; IPBC concentration: 0.5 ug/ml; 20 h
# Procedure: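 NMCCC compounds (133 uM) combined with IPBC (0.5 ug/ml) against Saccharomyces cerevisiae BY4743 in YPD, 96-well plates. Growth was read as OD600 at 20 h and expressed as % of the untreated control. Single pass.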
row,SMILES,growth [%]
1,CCOC(=O)c1c(C)[nH]c(C)c1C(=O)CSc1nnc2nc(C)cc(C)n12 + CCCCNC(=O)OCC#CI [3-iodo-2-propynyl butylcarbamate (IPBC)],88.2
2,O=C(NCCO)c1nnc(Cc2ccc3c(c2)OCO3)o1 + CCCCNC(=O)OCC#CI [3-iodo-2-propynyl butylcarbamate (IPBC)],92.3
3,Cc1nc(C)c(-c2nnc(SC(C)C(=O)NC3CCCCCC3)o2)s1 (stereo not drawn) + CCCCNC(=O)OCC#CI [3-iodo-2-propynyl butylcarbamate (IPBC)],104
4,CCOc1ccc(C(=O)NC(c2ccc(C)cc2)c2cccnc2)cc1 (stereo not drawn) + CCCCNC(=O)OCC#CI [3-iodo-2-propynyl butylcarbamate (IPBC)],97.3
5,CC(C)(C)C1=CSC(=N1)NC(=O)\C2=N\N(CC3=CC=C(F)C=C3)C(=O)CC2 + CCCCNC(=O)OCC#CI [3-iodo-2-propynyl butylcarbamate (IPBC)],85.1
6,COc1ccc(NC(=O)CSc2nc3nc(C)ccc3o2)c(OC)c1 + CCCCNC(=O)OCC#CI [3-iodo-2-propynyl butylcarbamate (IPBC)],96.8
7,CCOc1ccccc1NC(=O)CN1C(=O)CCSc2ccccc21 + CCCCNC(=O)OCC#CI [3-iodo-2-propynyl butylcarbamate (IPBC)],105
8,Cc1cccc(-n2ccnc2SCC(=O)Nc2ccccc2S(=O)(=O)C(F)F)c1 + CCCCNC(=O)OCC#CI [3-iodo-2-propynyl butylcarbamate (IPBC)],79.5

# Reformatted: results already given.
row | SMILES | growth [%]
1 | CCOC(=O)c1c(C)[nH]c(C)c1C(=O)CSc1nnc2nc(C)cc(C)n12 + CCCCNC(=O)OCC#CI [3-iodo-2-propynyl butylcarbamate (IPBC)] | 88.2
7 | CCOc1ccccc1NC(=O)CN1C(=O)CCSc2ccccc21 + CCCCNC(=O)OCC#CI [3-iodo-2-propynyl butylcarbamate (IPBC)] | 105
